Results of single-concentration screens

Sequences of proteins named here, by UniProt entry; tags and fusion partners are left off. Residues count along the entry.
UniProt A4I591, 1-473: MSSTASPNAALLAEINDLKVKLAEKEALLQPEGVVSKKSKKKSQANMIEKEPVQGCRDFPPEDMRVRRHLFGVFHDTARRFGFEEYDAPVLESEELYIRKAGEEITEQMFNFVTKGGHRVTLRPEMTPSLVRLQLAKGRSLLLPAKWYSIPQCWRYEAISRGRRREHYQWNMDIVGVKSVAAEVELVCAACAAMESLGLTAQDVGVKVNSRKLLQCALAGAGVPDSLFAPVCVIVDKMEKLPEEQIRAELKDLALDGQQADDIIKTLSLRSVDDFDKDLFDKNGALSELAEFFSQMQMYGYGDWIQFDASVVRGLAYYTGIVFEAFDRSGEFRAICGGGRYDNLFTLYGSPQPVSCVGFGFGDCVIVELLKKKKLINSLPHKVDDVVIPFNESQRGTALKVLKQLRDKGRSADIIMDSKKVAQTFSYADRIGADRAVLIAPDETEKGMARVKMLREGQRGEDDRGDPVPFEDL
UniProt Q4DA54, 1-478: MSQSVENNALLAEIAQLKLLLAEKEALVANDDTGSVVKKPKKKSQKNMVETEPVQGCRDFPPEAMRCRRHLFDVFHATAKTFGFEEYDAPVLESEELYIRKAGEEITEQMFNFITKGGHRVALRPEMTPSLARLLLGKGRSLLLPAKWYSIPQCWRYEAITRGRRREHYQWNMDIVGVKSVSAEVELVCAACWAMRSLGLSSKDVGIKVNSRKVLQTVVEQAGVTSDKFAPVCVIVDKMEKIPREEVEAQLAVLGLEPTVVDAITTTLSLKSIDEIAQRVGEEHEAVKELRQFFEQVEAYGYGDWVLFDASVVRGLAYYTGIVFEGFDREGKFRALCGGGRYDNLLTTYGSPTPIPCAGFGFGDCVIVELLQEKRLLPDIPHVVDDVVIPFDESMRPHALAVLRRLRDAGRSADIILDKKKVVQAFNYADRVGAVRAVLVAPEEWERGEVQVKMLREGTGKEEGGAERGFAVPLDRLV
UniProt Q8IDJ8, 1-583: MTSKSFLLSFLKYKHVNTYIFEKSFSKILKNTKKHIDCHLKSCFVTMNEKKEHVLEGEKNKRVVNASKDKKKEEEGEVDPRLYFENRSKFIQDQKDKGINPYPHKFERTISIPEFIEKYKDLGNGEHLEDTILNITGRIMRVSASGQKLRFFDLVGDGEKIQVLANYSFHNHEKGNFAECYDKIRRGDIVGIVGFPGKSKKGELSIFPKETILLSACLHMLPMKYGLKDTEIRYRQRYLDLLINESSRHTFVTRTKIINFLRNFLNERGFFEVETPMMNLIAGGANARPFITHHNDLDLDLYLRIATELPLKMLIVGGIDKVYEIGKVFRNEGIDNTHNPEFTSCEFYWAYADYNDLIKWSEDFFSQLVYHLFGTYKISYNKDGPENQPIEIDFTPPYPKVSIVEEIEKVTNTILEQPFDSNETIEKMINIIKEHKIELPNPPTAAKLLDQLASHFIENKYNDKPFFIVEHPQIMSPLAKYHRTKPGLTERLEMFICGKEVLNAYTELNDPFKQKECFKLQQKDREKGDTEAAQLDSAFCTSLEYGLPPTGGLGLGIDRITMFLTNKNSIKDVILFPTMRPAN

The filed quantity is “Percent Effect” (%). How 0% and 100% were set is not recorded. Most values in the screen are low, and negative values occur. The compounds are a random part of those screened. Two or more numbers in one place are separate tests of the same structure; such repeats can differ widely. A dash means the value is not listed here; it may have been measured.

A: 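Enzyme assay of histidyl-tRNA synthetase; the read-out is not stated. Target: Histidine-tRNA ligase, Leishmania infantum (UniProt A4I591). Concentration: 30 µM. Higher reads as stronger inhibition (inferred: compounds with an IC50 in retests scored well above the rest). The assay is labelled LdHisRS but filed under L. infantum. Of about 69,000 compounds tested this way, about 410 (0.6%) reached 50% or more in at least one test.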
B: 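Histidine-tRNA ligase, Trypanosoma cruzi CL Brener (UniProt Q4DA54). Enzyme assay of histidyl-tRNA synthetase; the read-out is not stated. Compounds at 30 µM. The record gives no direction; compounds that gave an IC50 in retests scored well above the rest, so higher reads as stronger inhibition. About 69,000 compounds were tested under these conditions; 0.045% (about 31) showed 50% or more at least once.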
C: 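Enzyme assay of the cytosolic lysyl-tRNA synthetase in 384-well plates, read by luminescence. Target: Lysine-tRNA ligase, Plasmodium falciparum 3D7 (UniProt Q8IDJ8). Compounds at 30 µM. Higher reads as stronger inhibition, judged from the few compounds that gave an IC50. About 69,000 compounds were tested under these conditions; 0.071% (about 49) showed 50% or more at least once.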
D: 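Cell assay of Leishmania donovani living inside macrophages; the read-out is not stated. Tested at 30 µM. Direction is inferred from retests: higher values go with stronger inhibition. About 69,000 compounds were tested under these conditions; 1.5% (about 1,000) showed 50% or more at least once.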

Compound | A | B | C | D
O=C(O)C(F)(F)F.[H][C@@]12CCN(C(=O)c3cnn(C)c3)[C@@]1([H])CCN2Cc1cccc(F)c1 | - | - | - | 2.666%
O=C(c1ccccn1)N1CCC(Cc2cnc3[nH]ccc3c2)CC1 | 12.37% | 2.222% | 2.883% | 10.96% & -11.94%
O=C(Cc1ccccn1)N1CCC2(CC1)CN(c1ccccn1)CCO2 | 4% | 4.598% | -2% | 0.4574%
Cc1nn(C)c(C)c1-c1cnc(C2CCCN(S(C)(=O)=O)C2)cn1 (stereo not drawn) | -4% | -0.7491% | 1.422% | 19.29%
Cc1cc(CNc2ccc(C(=O)N3CCCC(C)C3)cc2C)no1 (stereo not drawn) | 10.96% | -0.7634% | -3.118% | 17.48%
CC(C)(C)c1nc(CN2CCC3(CCCO3)CCC2=O)no1 (stereo not drawn) | 12.5% | 8.939% | 9.009% | 24.57%
Cc1ccc(C(=O)NC2CCN(C(=O)NCc3ccccn3)CC2)o1 | -16.81% | 2.624% | 0.2167% | -3.391%
Cc1cn(Cc2ccccc2)nc1N | 14.43% | 2.312% | 0.06907% | 24.56%
Cc1cc(C(=O)NCc2cccnc2N2CCCC(O)C2)c(C)o1 (stereo not drawn) | -1.205% | 3.659% | -7.684% | 26.29%
CN(C)CCn1c2c(ccc1=O)CC(NCc1cccnc1)CC2.O=C(O)C(F)(F)F.O=C(O)C(F)(F)F.O=C(O)C(F)(F)F (stereo not drawn) | - | - | - | 15.82%
O=C(NCc1cnc2n1CCN(CC1CC1)C2)C1CC1 | 1.389% | 1.869% | -1.158% | -
CN(C)CCCNC(=O)c1nc(Cc2c(Cl)cccc2Cl)no1 | 9.89% | 7.216% | -0.2901% | 0.1319%
Cc1nc2ccc(C(=O)N3CCn4c(nnc4C4CC4)C3)cc2nc1C | 4.348% | 8.791% | 1.917% | 6.888% & -8.899%
CN(Cc1ccc(C(=O)NCC2COCCO2)c(=O)[nH]1)CC(C)(C)C (stereo not drawn) | 11.11% | 6.667% | -1.032% | 15.59%
Cn1c(SCC(O)COCc2ccccc2Cl)nnc1C1CC1 (stereo not drawn) | 14.29% | 3.896% | -0.9761% | 14.19%
Cc1ccc(NC2CCN(C(=O)c3ccsc3)CC2)nn1 | 0% | 2.29% | 6.295% | -9.893%
CC(C)CC(NC(=O)CN(C)C(=O)c1ccco1)c1cccs1 (stereo not drawn) | 0.5236% | 2.674% | 1.752% | 40.77%
C[C@@H]1CN(C(=O)c2ccc(Br)cc2F)CC(C(N)=O)O1 (stereo partly drawn) | 12.68% | 4.972% | 0.9543% | 26.33%
Cn1cc(CNCCNC(=O)Cc2ccccc2)c(-c2cccnc2)n1 | 5.479% | -2.105% | -2.772% | 7.813%
Cc1ccc(CNC(=O)CC2C(=O)NCCN2Cc2ccccc2C)s1 (stereo not drawn) | 6.25% | -29.79% | 4.823% | 28.35%
CCCS(=O)(=O)Nc1ccc2c(c1)OCC(C)(C)C(=O)N2C | 15.38% | 4.959% | -3.327% | 8.77%
CC(C)N(C)CC(=O)N(C)C(c1cccc(F)c1)c1ccccn1 (stereo not drawn) | 9.615% | 2.857% | -1.757% | 5.714%
NCCc1c(-c2ccccc2)[nH][nH]c1=O | 0% | 2.959% | -1.844% | -
Cc1ccc(-c2nc(CCNC(=O)NC3CCC(O)CC3)co2)cc1 (stereo not drawn) | 8.621% | -0.565% | -0.2482% | 30.64%
CCn1cc(NC(=O)NCC(C)O)cn1 (stereo not drawn) | 14.61% | 3.759% | 6.198% | 15.2%
CC(C)CN(c1cn[nH]c1)S(=O)(=O)c1cccc(C#N)c1 | -8.036% | -1.724% | -1.438% | -44.95%
CCN(Cc1ccccc1)C(=O)CN1CCCC(Cn2cncn2)C1 (stereo not drawn) | 28.79% | -1.515% | 2.418% | -9%
CS(=O)(=O)NC[C@@H]1OC[C@H]2CN(C(=O)c3ccc[nH]3)CC[C@H]21 | -383% | -162.7% | 3.085% | -
Cc1cc(-c2cnc(N3CCC(C(N)=O)CC3)nc2C(C)C)on1 | 2.797% | -7.345% | 0.8171% | 23.13%
Cc1ccc(C(=O)NS(=O)(=O)Cc2ccccc2)cc1S(C)(=O)=O | 7.229% | 8.287% | 3.667% | 20.37%
CC(NC(=O)NC1CCN(Cc2ccncc2)CC1)c1ccc(F)cc1 (stereo not drawn) | 9.302% | 0% | 1.864% | 6.686%
[H][C@]12CC[C@]([H])(CN(Cc3nnc(C4CC4)o3)C1)N(Cc1cscn1)C2=O | - | - | - | 3.296%
O=C1CCOC[C@]2(CN(Cc3ccccc3)C[C@H]2c2ccccc2F)N1 | 17.45% | 3.714% | 1.641% | 15.31%
Cn1cnc2c(N3CCOCC3)nc(C3CCNCC3)cc21 | 28.57% | -0.9804% | -4.291% | -
COCCC(=O)N1CCC2(COCc3cnc(NCC4CC4)nc32)C1 (stereo not drawn) | 14.52% | -2.632% | 1.334% | 29.47%
COc1cccc(CN2CCC3(CCN(c4ncc(F)cn4)CC3)C2)c1 | 5.263% | 7.527% | 2.923% | -
O=C(O)C(F)(F)F.O=C(O)C(F)(F)F.[H][C@@]12COC[C@]1([H])[C@H](OCc1ccccn1)CN2Cc1ccc(OC)cc1 | - | - | - | -17.55%
COCC(=O)N1CCCC2(CCN(Cc3cccc(C)n3)C2=O)C1.O=C(O)C(F)(F)F (stereo not drawn) | - | - | - | 4.406% & 7.623%
O=C1CC[C@@H](C(=O)N2CCC(Cn3cc(C4CCCCC4)nn3)CC2)N1 | 9.302% | 7.143% | -2.389% | 33.58%
Cc1ccc(C(=O)N2C[C@H]3CC[C@@H]2CN(S(=O)(=O)N(C)C)C3)c(O)c1 | 9.677% | 12.64% | -2.597% | -
CN(Cc1ncc(-c2ccccc2C(=O)O)s1)c1ncccn1 | 11.19% | -1.695% | -1.013% | 19.3%
CCc1nc(C2CCCN(C(=O)CCn3ccccc3=O)C2)no1 (stereo not drawn) | 23.2% | -1.901% | -5.081% | 4.139%
CCCC(=O)N1CCN(CC(O)COCC)CC1 (stereo not drawn) | 7.895% | 4.36% | -1.249% | 1.155%
CNc1cncc(C2CCCN2C(=O)c2ccc3oc(C)cc3c2)n1 (stereo not drawn) | 14.29% | 3.226% | 3.909% | 22.07%
CN(Cc1ccncc1)C1CC2(CCN(c3ncccn3)CC2)C1 | 15.79% | 4.598% | 2.304% | -
CSCCC(NC(N)=O)C(=O)Nc1ccc(-n2cccn2)nc1 (stereo not drawn) | 17.65% | 12.35% | 5.081% | 33.05%
CN1CCN(Cc2cn3c(n2)CN(C(=O)c2ccco2)CC3)CC1 | 22.22% | 3.483% | 8.26% | 11.23%
c1cnc(N2CC3(CCN(Cc4cccnc4)C3)C2)nc1 | -5.769% | -0.9709% | 0.2069% | -
Cn1c(CN2CCOC(CCc3ccncn3)C2)nc2ccccc21 (stereo not drawn) | -7.368% | 0.7463% | 1.022% | -7.23% & -4.352%
CNc1ncc(CN(C)C(=O)[C@@]23CNC[C@@H]2CN(C2CCCC2)C3)cn1 | 8% | 13.25% | 5.139% | -
O=C(c1cc(-n2cccn2)ccn1)N(CC(F)(F)F)C1CCCC1 | 7.292% | 0.5525% | 1.538% | 11.19%
COc1ncccc1CNC(=O)c1c(C)oc(C)c1C | 18.35% | 4.706% | 1.628% | 17.78%
Cc1cnc(N2C[C@H]3CCN(CC4CC4)C[C@@H]3C2)nc1 | 0% | 2.299% | -0.2629% | -
COc1ccccc1C1=NOC(CC2(C(=O)NCCO)CCOCC2)C1 (stereo not drawn) | 11.58% | 8.955% | 1.759% | -1.865% & 28.01%
COc1cc(C2(C(=O)NCCn3ccnc3)CCCC2)ccc1C | 16.67% | 10.34% | 6.837% | 3.931%
O=C1CC(N(C(=O)CCc2cc(F)ccc2F)C2CC2)C(=O)N1 (stereo not drawn) | 20.41% | 15% | 0.5619% | 35.55%
O=C(NCC1CCCOC1)c1ccc(-c2cccs2)[nH]c1=O (stereo not drawn) | -4% | 4.046% | 9.877% | 20.41%
Cc1cccc(OCCNC(=O)CN2CCN(C)CC2C)c1 (stereo not drawn) | 5.505% | 2.624% | -1.393% | 0.5856%
CCC[C@@H](NC(N)=O)C(=O)N1CCc2ccccc2CC1 | 3.665% | 4.813% | 2.227% | 18%
c1ccc(CCCn2ccnc2-c2cn(C3CCNCC3)nn2)nc1 | 15.29% | 8.04% | -0.1331% | 19.8%
CC(C)N(C)Cc1cncc2c1CCN(C(=O)c1cccc(C#N)c1)C2.Cl.Cl | - | - | - | -4.412% & 5.289%
Cc1ncsc1-c1ccn(CC(=O)Nc2cnn(C)n2)n1 | 8.889% | 0% | 0.898% | 6.825%
CN(CCNC(=O)c1cccnc1)S(C)(=O)=O | 13.11% | 7.2% | 4.118% | -13.4%
CCN1CCc2[nH]cnc2C12CCN(c1ccc(Cl)c(C(=O)O)n1)CC2 | 23.94% | 10.5% | 2.397% | 29.2%
COc1coc(CN2CCCC(CCc3ccc(F)c(F)c3)C2)cc1=O (stereo not drawn) | 32.89% | 12.32% | 10.65% | -17.68%

From ChEMBL document CHEMBL3988442, “University of Dundee, Small-Polar-MMV Screening Library” (2021).